From PubChem BioAssay AID540276 (National Center for Advancing Translational Sciences (NCATS), 2011)
Hit rate of the full screen: of about 300,000 compounds, about 5,400 (1.8%) were called active. Inconclusive results, whose numbers are uncertain, are shown with a selection of clear calls. Calls come from the whole dose curve; tested in HEK293 cells. Potencies of inconclusive entries are doubtful fits and often do not repeat.

Test: qHTS for inhibitors of binding or entry into cells for Marburg Virus
Conditions: Marburg virus pseudotyped entry inhibition, cell reporter; series mostly up to 37.8 µM
Potency is the fitted concentration of half-maximal effect.

SMILES	Potency
COc1ccc(Nc2cc(NCCCO)c([N+](=O)[O-])c3nonc23)cc1	inactive
O=[N+]([O-])c1ccc(O)c2ncccc12	inconclusive: 4.11 µM [inhibitor, partial curve, poor fit]
O=C(Cc1nn[nH]n1)NCc1ccccc1Cl	inactive
CC(C)N=C(Nc1ccc(Cl)cc1)c1cccnc1	inconclusive: 6.51 µM [inhibitor, single point]
O=C(CN1C2=NCCN2c2ccccc21)c1ccc(Br)s1	inconclusive: 29.1 µM [inhibitor, single point]
Cc1ccc(C(=O)N2CCc3ccccc32)o1	inconclusive: 11.2 µM [inhibitor, partial curve, poor fit]
Cc1ccc(NC(=S)N(CCCN2CCCC2)Cc2cccn2Cc2ccc(Cl)cc2)cc1	inconclusive: 10 µM [inhibitor, partial curve, poor fit]
COc1ccc(-c2csc(NC(=O)COC(=O)Cc3ccc(Cl)cc3Cl)n2)cc1	inactive
CCCNC(=O)c1ccc(SCC(=O)N(CC)CC)c([N+](=O)[O-])c1	inactive
COc1ccc2c(c1)C(C)CC(C)(C)N2C(=O)Nc1ccccc1 (stereo not given)	inconclusive: 2.51 µM [inhibitor, single point]
Cc1ccc(/C=N/NC(=O)C2(C)CC2(Br)Br)cc1 (stereo not given)	inactive
CCn1cc2nc(SCc3cccc(OC)c3)n(Cc3ccc(Cl)cc3)c(=O)c2n1	inconclusive: 22.4 µM [inhibitor, single point]
O=C(NCCc1nnc2ccc(NCc3ccccc3Cl)nn12)c1ccccc1	inconclusive: 12.6 µM [inhibitor, partial curve, poor fit]
N#C/C(=C\c1cccs1)C(=O)Nc1nccs1	inconclusive: 35.5 µM [activator, single point]
CC(=O)c1ccc(N2CCN(S(=O)(=O)c3c(C)[nH]c(C)c3C(=O)N3CCCC3)CC2)cc1	inactive
CC(C)CCN1CCNC(=O)C1CC(=O)N(C)CCCN1CCOCC1 (stereo not given)	inactive
Cc1cc(C)nc(SCC(=O)Nc2ccc(N3CCOCC3)c(Cl)c2)n1	inconclusive: 10 µM [inhibitor, partial curve, poor fit]
COc1ccc(OCC(=O)N2CCN(CCc3ccccn3)CC2)cc1	inconclusive: 6.31 µM [inhibitor, single point]
CCOc1ccc(OCCC(=O)NNC(=O)c2ccncc2)cc1	inconclusive: 0.631 µM [activator, single point]
CC1COc2ccccc2N1S(=O)(=O)c1ccccc1 (stereo not given)	inconclusive: 7.08 µM [inhibitor, partial curve, poor fit]

A second format for two compounds above:
N#C/C(=C\c1cccs1)C(=O)Nc1nccs1
  Potency: inconclusive: 35.5 µM [activator, single point]
CC(=O)c1ccc(N2CCN(S(=O)(=O)c3c(C)[nH]c(C)c3C(=O)N3CCCC3)CC2)cc1
  Potency: inactive
